Reference: PMC3914946
No constants are given. Whether binding was seen depends on the method and setting. Binding seen in cells or lysates may run through a third protein. Some binding calls cover weakened binding; strength is not graded here.

Sequences of proteins named here, by UniProt entry; tags and fusion partners are left off.
UniProt P11802: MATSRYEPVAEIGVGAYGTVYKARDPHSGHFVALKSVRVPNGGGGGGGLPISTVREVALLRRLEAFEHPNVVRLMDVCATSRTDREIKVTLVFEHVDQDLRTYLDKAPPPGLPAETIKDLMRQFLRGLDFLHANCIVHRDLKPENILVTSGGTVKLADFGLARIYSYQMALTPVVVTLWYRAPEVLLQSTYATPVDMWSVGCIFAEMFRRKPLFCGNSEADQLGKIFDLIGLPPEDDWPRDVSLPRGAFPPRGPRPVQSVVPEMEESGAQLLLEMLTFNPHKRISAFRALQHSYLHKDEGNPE
UniProt P24385: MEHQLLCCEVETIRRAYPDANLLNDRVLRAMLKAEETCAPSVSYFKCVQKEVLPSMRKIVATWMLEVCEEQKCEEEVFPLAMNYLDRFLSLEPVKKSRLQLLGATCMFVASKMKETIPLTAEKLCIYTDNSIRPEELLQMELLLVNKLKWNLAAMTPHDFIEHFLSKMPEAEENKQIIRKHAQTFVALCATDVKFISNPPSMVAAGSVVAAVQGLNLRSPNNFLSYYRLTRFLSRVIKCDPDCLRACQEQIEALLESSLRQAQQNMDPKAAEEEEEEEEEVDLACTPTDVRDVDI

Biological target: CDK4 (human (endogenous in U2OS)) (UniProt P11802)
Assay: co-IP; CDK4 immunoprecipitated with anti-CDK4 antibody (H22) and Protein G Dynabeads from lysates of U2OS cells transfected with p16, p16-ACT, p14ARF, chARF or control; non-denaturing lysis buffer (50 mM Tris-HCl pH 8.0, 150 mM NaCl, 10% glycerol, 1% Igepal CA-630, 1 mM EDTA), 4°C; immunoblot of the precipitate

- binding: binds
Substance: cyclin D1 (from UniProt P24385 1-295)
